Results are given in words; binding and its absence hold for the method and conditions named. Binding seen in cells or lysates may run through a third protein. Some binding calls cover weakened binding; strength is not graded here. Sequences can lack the tags named with a protein. One block for each molecule: values may come before it.
Target: T1, MOR18-2, N-terminal Flag tag (mouse) (UniProt Q8VBV9)
T1 sequence: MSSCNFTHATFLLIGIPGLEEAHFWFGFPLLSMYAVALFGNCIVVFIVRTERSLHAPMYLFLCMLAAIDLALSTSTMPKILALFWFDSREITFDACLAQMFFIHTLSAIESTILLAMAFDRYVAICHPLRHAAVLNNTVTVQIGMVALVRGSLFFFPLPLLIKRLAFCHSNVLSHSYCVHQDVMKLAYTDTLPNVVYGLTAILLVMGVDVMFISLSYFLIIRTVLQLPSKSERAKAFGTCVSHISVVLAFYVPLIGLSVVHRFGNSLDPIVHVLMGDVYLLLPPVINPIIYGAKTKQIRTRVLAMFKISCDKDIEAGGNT
Assay: co-IP; COS cells co-transfected with Flag-tagged OR constructs and MKS3 or HA-tagged MKS1; immunoprecipitation with a Flag antibody, blot for MKS3 or for HA (MKS1)

By UniProt entry, the sequences of proteins in these tests, tags left out. Residues count along the entry.
UniProt Q5HYA8, residues 37-995: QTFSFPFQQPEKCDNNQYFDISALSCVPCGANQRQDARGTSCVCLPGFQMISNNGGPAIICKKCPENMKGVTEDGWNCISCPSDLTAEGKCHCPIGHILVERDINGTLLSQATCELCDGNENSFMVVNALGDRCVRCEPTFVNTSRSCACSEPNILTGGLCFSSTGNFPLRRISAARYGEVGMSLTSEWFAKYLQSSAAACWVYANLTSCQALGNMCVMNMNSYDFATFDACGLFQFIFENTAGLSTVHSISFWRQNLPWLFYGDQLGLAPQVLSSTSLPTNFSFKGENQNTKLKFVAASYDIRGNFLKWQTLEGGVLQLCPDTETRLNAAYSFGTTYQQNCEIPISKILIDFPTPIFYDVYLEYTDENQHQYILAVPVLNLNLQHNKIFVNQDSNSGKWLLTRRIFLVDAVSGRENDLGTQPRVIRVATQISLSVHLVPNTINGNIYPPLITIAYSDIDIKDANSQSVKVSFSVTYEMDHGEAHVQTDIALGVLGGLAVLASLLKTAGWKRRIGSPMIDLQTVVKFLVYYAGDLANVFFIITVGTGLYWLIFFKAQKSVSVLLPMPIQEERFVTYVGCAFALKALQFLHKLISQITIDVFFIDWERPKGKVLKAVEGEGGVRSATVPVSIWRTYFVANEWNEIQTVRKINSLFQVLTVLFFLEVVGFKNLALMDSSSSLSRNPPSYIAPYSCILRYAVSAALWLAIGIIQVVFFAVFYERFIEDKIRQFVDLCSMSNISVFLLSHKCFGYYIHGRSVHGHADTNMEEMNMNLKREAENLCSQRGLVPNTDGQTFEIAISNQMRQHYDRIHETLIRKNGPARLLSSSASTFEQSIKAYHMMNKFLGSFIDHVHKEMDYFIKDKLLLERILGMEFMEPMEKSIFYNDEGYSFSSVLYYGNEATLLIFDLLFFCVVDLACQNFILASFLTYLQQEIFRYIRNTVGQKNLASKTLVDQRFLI

binding: binds
Molecule: Meckel-Gruber syndrome 3 (MKS3; meckelin), full-length human (from UniProt Q5HYA8 37-995)

binding: binds
B1: Meckel-Gruber syndrome 1 (MKS1), HA-tagged (protein, UniProt Q9NXB0 1-559)
chain: MAETVWSTDTGEAVYRSRDPVRNLRLRVHLQRITSSNFLHYQPAAELGKDLIDLATFRPQPTASGHRPEEDEEEEIVIGWQEKLFSQFEVDLYQNETACQSPLDYQYRQEILKLENSGGKKNRRIFTYTDSDRYTNLEEHCQRMTTAASEVPSFLVERMANVRRRRQDRRGMEGGILKSRIVTWEPSEEFVRNNHVINTPLQTMHIMADLGPYKKLGYKKYEHVLCTLKVDSNGVITVKPDFTGLKGPYRIETEGEKQELWKYTIDNVSPHAQPEEEERERRVFKDLYGRHKEYLSSLVGTDFEMTVPGALRLFVNGEVVSAQGYEYDNLYVHFFVELPTAHWSSPAFQQLSGVTQTCTTKSLAMDKVAHFSYPFTFEAFFLHEDESSDALPEWPVLYCEVLSLDFWQRYRVEGYGAVVLPATPGSHTLTVSTWRPVELGTVAELRRFFIGGSLELEDLSYVRIPGSFKGERLSRFGLRTETTGTVTFRLHCLQQSRAFMESSSLQKRMRSVLDRLEGFSQQSSIHNVLEAFRRARRRMQEARESLPQDLVSPSGTLVS
